The assay concerns the target T1, macrophage migration inhibitory factor (MIF) (human (endogenous in HeLa and HEK293)) (UniProt P14174).
T1 sequence: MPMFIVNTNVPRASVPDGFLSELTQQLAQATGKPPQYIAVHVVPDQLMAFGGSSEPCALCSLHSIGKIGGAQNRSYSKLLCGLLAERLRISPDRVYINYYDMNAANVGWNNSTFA
Kind of assay: affinity purification with mass spectrometry; MIF immunoprecipitated in HeLa cells, then mass spectrometry; MIF-KO HeLa as negative control; physiological and ferroptotic conditions.

By UniProt entry, the sequences of proteins in these tests, tags left out.
UniProt P13010: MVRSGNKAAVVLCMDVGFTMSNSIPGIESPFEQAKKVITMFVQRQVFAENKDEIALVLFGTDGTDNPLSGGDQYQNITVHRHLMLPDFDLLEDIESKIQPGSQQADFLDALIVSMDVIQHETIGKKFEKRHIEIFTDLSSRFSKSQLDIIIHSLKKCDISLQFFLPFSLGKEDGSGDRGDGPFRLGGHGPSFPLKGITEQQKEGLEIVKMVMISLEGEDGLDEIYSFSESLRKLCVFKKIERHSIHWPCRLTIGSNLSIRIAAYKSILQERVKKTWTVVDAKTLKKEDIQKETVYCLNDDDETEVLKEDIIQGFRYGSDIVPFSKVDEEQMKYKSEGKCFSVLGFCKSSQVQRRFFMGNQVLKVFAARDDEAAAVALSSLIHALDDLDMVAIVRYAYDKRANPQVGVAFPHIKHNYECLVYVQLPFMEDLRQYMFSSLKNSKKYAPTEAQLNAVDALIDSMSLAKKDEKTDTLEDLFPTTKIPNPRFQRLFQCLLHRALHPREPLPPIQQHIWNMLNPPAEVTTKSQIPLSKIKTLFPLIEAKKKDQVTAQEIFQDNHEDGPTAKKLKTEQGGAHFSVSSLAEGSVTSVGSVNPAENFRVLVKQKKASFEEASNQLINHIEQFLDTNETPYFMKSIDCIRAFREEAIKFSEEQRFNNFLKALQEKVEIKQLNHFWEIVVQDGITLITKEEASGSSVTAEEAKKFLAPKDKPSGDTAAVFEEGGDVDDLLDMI
UniProt P12956: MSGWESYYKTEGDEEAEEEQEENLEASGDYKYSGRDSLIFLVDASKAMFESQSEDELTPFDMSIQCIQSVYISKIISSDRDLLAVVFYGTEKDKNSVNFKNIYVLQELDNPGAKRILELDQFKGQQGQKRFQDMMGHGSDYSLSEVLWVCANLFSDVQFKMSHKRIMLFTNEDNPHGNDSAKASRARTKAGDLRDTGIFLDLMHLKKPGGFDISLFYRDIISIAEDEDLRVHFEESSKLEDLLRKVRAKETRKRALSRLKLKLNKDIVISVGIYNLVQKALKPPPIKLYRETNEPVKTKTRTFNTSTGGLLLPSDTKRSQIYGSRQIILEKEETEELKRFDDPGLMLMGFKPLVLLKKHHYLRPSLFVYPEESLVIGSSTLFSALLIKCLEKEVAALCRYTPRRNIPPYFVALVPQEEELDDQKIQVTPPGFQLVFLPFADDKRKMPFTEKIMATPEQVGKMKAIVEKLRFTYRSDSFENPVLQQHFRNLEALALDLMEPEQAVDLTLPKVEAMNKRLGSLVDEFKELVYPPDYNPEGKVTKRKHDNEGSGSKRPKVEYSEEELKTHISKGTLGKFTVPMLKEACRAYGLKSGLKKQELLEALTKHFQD

No constants are given. Whether binding was seen depends on the method and setting. In cells and extracts the contact can be indirect. These calls come from enrichment with a bait or labelling near it, and not all partners need be listed.

As for Ku80 (from UniProt P13010 1-732), the binding entry is “binds”.
With Ku70 (from UniProt P12956 1-609), the binding entry is on record as “binds”.

The values above are taken from paper PMC11348242.
